The values below come from article PMC3916239, “Distinct DNA Binding Sites Contribute to the TCF Transcriptional Switch in C. elegans and Drosophila”.

The target of the series is T1, POP-1 (Caenorhabditis elegans) (UniProt Q10666).
T1 sequence (looked up, limits assumed): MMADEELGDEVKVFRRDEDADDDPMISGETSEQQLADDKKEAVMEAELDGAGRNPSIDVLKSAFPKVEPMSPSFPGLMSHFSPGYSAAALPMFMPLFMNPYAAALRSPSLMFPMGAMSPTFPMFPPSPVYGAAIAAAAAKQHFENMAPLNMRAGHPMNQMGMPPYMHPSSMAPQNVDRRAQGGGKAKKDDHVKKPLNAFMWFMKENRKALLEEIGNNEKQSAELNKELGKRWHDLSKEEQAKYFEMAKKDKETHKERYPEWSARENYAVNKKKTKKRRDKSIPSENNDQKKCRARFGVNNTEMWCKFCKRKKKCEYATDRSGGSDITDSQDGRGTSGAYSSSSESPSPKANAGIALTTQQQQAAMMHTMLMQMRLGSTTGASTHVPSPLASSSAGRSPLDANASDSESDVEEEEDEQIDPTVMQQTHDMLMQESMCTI
In words: EMSA. To be noted: 10 mM Tris-HCl pH 7.5, 50 mM KCl, 1 mM DTT, 5 mM MgCl2, 0.05% NP-40, 50 ug/ml poly(dI-dC), glycerol, 20 ul, 5 min on ice then 25 min room temperature, 6% native gel, recombinant protein, protein details: 6xHis, label: biotin. A general note: Mobility shift assays separate free from complexed probe on a gel.

Construct, isoform or probe ends are uncertain for at least one entry. The comparison behind a weaker result is the experiment's own reference, which may not be listed here. Protein sequences can lack the tags named with them. At least one verdict rests on a figure or table, not on a statement of the authors.

As to “ACACGTTCTGGCCACATTTTCTTTGATTTTTTCTGATTTCGCCGACTTTTTTC (double strand) [K08D12.3 short probe (no Helper1)]”, the binding result is “binds more weakly”.

In the case of “TACGAGAAGCGGCGATTCAAGAGTTTCAAATAACTTCTCCACCGCCTTTTGAAGTTGCCGAAAATAGTTAAA (double strand) [ceh-22b control probe (72 nt as printed)]”, the binding result (positive control) was “binds”.
